These are yes or no findings as the source states them, for the method shown. A result given as binding can be weak or reduced; the word gives no strength.
Target: T1, Drosophila dynamin Shibire (Shi), wild type (Drosophila) (UniProt P27619)
T1 sequence: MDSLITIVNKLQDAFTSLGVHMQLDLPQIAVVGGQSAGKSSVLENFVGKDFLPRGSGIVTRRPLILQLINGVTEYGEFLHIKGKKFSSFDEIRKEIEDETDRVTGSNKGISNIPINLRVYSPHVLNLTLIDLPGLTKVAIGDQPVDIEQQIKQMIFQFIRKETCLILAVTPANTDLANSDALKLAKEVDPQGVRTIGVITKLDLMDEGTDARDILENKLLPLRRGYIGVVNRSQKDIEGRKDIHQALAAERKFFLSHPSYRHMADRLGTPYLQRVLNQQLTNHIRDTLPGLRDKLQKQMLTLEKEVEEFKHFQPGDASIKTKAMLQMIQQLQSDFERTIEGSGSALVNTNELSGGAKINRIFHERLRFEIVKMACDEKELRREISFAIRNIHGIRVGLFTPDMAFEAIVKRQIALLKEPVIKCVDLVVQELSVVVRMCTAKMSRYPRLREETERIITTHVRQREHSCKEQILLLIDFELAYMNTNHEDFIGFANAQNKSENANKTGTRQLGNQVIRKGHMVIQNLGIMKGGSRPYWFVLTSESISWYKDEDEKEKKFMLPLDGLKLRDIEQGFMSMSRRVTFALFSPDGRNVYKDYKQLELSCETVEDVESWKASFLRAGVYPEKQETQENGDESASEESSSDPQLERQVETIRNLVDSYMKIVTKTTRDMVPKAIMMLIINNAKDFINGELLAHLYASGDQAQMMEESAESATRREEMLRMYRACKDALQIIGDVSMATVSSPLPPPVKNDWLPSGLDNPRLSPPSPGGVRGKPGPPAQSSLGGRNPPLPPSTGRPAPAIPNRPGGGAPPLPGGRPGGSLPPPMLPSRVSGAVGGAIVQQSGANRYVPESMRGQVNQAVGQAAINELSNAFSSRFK
Experiment: co-sedimentation

Chains of the proteins cited; added tags and fusions are not shown. Lines headed by an entry give the natural chain unless they say otherwise; changes in a name come on top.
UniProt Q8IPW2: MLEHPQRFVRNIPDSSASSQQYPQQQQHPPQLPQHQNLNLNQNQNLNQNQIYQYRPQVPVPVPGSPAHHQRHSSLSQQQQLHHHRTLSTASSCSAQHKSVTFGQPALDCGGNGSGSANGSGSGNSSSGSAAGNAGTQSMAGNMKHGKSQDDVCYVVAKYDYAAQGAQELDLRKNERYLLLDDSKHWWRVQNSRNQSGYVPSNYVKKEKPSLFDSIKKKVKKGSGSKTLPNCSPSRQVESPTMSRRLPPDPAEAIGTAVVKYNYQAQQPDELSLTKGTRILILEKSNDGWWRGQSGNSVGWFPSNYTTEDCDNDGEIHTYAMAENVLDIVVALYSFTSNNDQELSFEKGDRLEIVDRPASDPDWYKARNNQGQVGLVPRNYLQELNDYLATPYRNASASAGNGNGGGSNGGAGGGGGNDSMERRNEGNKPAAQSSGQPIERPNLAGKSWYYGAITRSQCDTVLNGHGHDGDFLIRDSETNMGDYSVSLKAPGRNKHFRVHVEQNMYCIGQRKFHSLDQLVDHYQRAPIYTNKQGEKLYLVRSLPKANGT
UniProt Q08012: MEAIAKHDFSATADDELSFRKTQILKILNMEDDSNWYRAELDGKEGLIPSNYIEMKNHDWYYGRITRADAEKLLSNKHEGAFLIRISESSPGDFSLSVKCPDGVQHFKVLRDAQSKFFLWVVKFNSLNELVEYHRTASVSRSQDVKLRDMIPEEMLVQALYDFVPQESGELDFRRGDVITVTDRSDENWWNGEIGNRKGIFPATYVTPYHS
UniProt Q7KUD2: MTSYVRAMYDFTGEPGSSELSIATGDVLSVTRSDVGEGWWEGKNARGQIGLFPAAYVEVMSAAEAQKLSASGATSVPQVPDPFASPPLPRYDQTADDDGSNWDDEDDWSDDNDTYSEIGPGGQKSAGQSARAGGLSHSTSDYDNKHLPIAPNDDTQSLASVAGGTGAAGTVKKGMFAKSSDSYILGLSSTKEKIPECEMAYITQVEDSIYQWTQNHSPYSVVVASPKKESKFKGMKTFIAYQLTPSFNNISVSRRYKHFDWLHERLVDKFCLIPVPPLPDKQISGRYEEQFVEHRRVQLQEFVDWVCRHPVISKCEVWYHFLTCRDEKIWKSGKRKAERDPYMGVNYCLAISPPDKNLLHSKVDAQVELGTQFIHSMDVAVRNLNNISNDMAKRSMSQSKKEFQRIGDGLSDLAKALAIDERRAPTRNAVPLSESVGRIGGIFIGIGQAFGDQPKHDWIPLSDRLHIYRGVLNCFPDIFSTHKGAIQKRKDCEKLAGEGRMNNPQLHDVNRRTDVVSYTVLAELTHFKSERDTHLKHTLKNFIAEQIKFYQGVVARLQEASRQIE

Row | Substance | binding
1 | Dock-SH3.3 (the third SH3 domain of Dock) (from UniProt Q8IPW2) (domain or fragment) | binds
2 | Drk-SH3.2 (the second SH3 domain of Drk) (from UniProt Q08012) (domain or fragment) | binds
3 | Dock-SH3.2 (the second SH3 domain of Dock) (from UniProt Q8IPW2) (domain or fragment) | binds
4 | SH3PX1-SH3 (the SH3 domain of SH3PX1) (from UniProt Q7KUD2) (domain or fragment) | binds
5 | Drk-SH3.1 (the first SH3 domain of Drk) (from UniProt Q08012) (domain or fragment) | binds
